Measurements taken from US11999745B2, “Pharmaceutical compounds” (Heptares Therapeutics Limited, priority 2020, dated 2024).

System: scPCP treated female Lister Hooded rats
Experiment: Attenuation of sub-chronic PCP-induced deficit in the operant reversal learning task
Assay type: in vivo, rat
Settings: mean ± S.E.M (n = 6-9)
Method: Investigate the ability of Example 1 (1, 3, 10 and 30 mg/kg, p.o., 1 hour pre-treatment time ptt) to attenuate the disruption of a cognitive task induced by sub-chronic treatment with phencyclidine (scPCP) in female Lister Hooded rats.
Female Lister Hooded rats were used for this experiment. The average weight of rats at the time of testing was 294 g±29 g. Rats were housed in groups of 3-5 under standard laboratory conditions under a 12 hr light: dark cycle (lights on at 0700 hr), and food restricted to 90% of free-feeding bodyweight (12 g of food per rat per day). Testing was carried out in the light phase. Rats were randomly assigned to two treatment groups and received vehicle, n=8 (0.9% saline solution, i.p.) or PCP, n=48 (2 mg/kg, i.p. twice daily for 7-days). On the day of testing, rats were randomly assigned to seven treatment groups (n=6-8 per group) to receive an acute treatment with Example 1 (1, 3, 10 and 30 mg/kg, p.o., 1 hour ptt) or vehicle. Example 1 was dissolved in 1% methylcellulose and administered orally (p.o.) in a volume of 5 ml/kg, 1 hour prior to testing. The study was carried out in accordance with the Animals Scientific Procedures Act (UK, 1986) and was approved by the University of Manchester AWERB (Animal Welfare and Ethical Review Body).
Following habituation to the operant chambers, rats were trained to respond for food on an FR1 (Fixed Ratio 1) schedule of reinforcement with both levers active. When responding was stabilised, rats were trained to press either the left or right lever for food delivery and the active lever was varied from day to day. Each session lasted 20 minutes and counts were recorded on each lever. Subsequently the rats were then trained to respond for food according to the position of a visual cue (a lit LED). Half were trained to press the lever under the lit LED in order to receive a food reward, the other half were trained on the opposite contingency (to press the lever under the non-lit LED). The experimental session was terminated following a total of 128 lever presses, which took approximately 30 minutes. Subsequently, rats were trained until they again reached criterion on the opposite contingency.
The day before each reversal learning task session, a full […] operant training session (as described above) was conducted to ensure stable responding. For the reversal learning task animals were first exposed to a 5-minute period during which the contingency (cue position relative to active lever) was the same as for the operant training session. During this period, responses on both correct and incorrect levers were recorded. This part of the session is termed the initial phase. In the subsequent 5-minute period, the contingency was reversed. Responses made on the correct and incorrect levers were again recorded. This second period is termed the reversal phase. At this stage, training ceased and rats were treated with PCP (2 mg/kg, i.p. or vehicle 0.9% saline, i.p.) for 7 days followed by at least a 7-day washout period. Rats were randomized such that all rats within a cage received a different drug treatment.
Data are presented as percent correct response (±S.E.M) with values for the initial and reversal phases are presented for the different drug treatment groups (FIG. 2). The percentage correct response data were used to determine whether there was a significant effect of drug on response accuracy (e.g. that might reflect cognitive dysfunction); Statistical significance was assumed when P<0.05 and was determined using one-way ANOVA in order to detect main effect of drug treatment in the initial and reversal phases.

For `CC(C)(C)NC(=O)C1CCN([C@H]2C[C@H]3CC[C@@H](C2)N3c2nc(C(F)(F)F)no2)CC1` [Example 1, N-tert-butyl-1-{(1R,3r,5S)-8-[3-(trifluoromethyl)-1,2,4-oxadiazol-5-yl]-8-azabicyclo[3.2.1]octan-3-yl}piperidine-4-carboxamide], the “mean total number of lever presses, Initial phase” value (“mean total number … Initial phase” for short) (1.0 mg/kg p.o.) was 27.4 ± 0.2, the “mean total number of lever presses, Reversal phase” value (“mean total number … Reversal phase” for short) (1.0 mg/kg p.o.) was 27.5 ± 0.3 and the “mean total number … Initial phase” value (3.0 mg/kg p.o.) was 27.5 ± 0.2. The “mean total number … Reversal phase” value (3.0 mg/kg p.o.) was 26.8 ± 0.2, the “mean total number … Initial phase” value (10.0 mg/kg p.o.) was 27.0 ± 0.3 and the “mean total number … Reversal phase” value (10.0 mg/kg p.o.) was 26.6 ± 0.5. The “mean total number … Initial phase” value (30.0 mg/kg p.o.) was 26.4 ± 0.6 and the “mean total number … Reversal phase” value (30.0 mg/kg p.o.) was 26.6 ± 0.3.
